{"source": "paper PMC8081524", "target": "T1, GST-Cx34.1 (aa 256-299) (zebrafish (Danio rerio)) (UniProt B3DHR0)", "T1 sequence": "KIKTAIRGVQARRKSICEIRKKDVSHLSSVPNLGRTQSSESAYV", "assay": "pull-down; GST fusions on glutathione resin (10 µl bed) incubated with 15 µl 6xHIS-ZO1b-PDZ1 (7 mg/ml), room temperature, 15 min; washed with 50 mM NaPO4 pH 7.4, 300 mM NaCl; blot with anti-TEV cleavage site antibody; both purified", "note": "These are yes or no findings as the source states them, for the method shown. A result given as binding can be weak or reduced; the word gives no strength. Tags and fused reporters may be left off the sequences shown."}
{"substance": "6xHIS-TEV cleavage site-ZO1b (aa105-207) (zebrafish (Danio rerio)) (domain or fragment)", "values": [{"measurement": "binding", "result": "binds"}]}
